The list shows only some results of the screen, not a fair sample: it is rich in T/C values a quarter to a half above the control, in often repeated tests (any T/C) and in doses without a T/C. Other doses and runs of a compound stand elsewhere. T/C: endpoint of the treated group in % of that of the vehicle group. Some entries give survivors of the animals treated and no T/C: the source files T/C as zero there, which appears to mark a toxic dose or a test without result, not a measured value. Some doses without a T/C left all or most animals alive at the check, yet need not have been tolerated: survival well below the control is almost never listed, so the zero probably covers shortened survival too. Survivors were counted at the toxicity check, usually on the fifth day, unless a day is given; later deaths do not show. Schedules are NCI's codes, taken here to give the interval after Q, in days (D) or hours (H), and the number of doses after X. Brackets with × stand for listed records that agree. Some entries hold several experiments; the results are listed from low to high. For survival time, the PubChem record calls one and a half times the control and up active, and a quarter to a half above the control has no call in these data; cut-offs in other NCI protocols can differ. Some T/C values are followed by the survivors on the day toxicity was checked, most often the fifth; where none is given, no animal had died by that day. Starred links: 1 amine or outer side, 2 acyl side, 3 side chain; linkers in the order of their positions; H or OH if unused. Positions of bridges follow the written chain, without caps; N, C: chain ends. Non-standard residues stand in square brackets, D forms with d. Residues, ends and D or L forms follow the SMILES beside them. Chains are numbered I, II in the order given. Actinocin(9to1) = Cc1c2oc3c(C)ccc(C(=O)[*:1])c3nc-2c(C(=O)[*:2])c(N)c1=O; aThr = C[C@H](O)[C@H](N)C(=O)O; NMeV = CN[C@H](C(=O)O)C(C)C; Sar = CNCC(=O)O
Tested on: BDF1 mice, P388 leukemia ip, median survival T/C
Test: NCI In Vivo Anticancer Drug Screen. Data for tumor model P388 Leukemia (intraperitoneal) in B6D2F1 (BDF1) mice
Details: T/C endpoint: median survival time, higher T/C = longer survival
Summary of the method: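 Steps: implant the tumour, treat one group with compound and another with vehicle, record survival, then divide treated by control.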

[1] = dose: 0.86 mg/kg/injection, schedule: Q01DX001 (ip), vehicle: saline

**Q.** What does the source list for `Cc1c2oc3c(C)ccc(C(=O)N[C@@H]4C(=O)N[C@H](C(C)C)C(=O)N5CCC[C@H]5C(=O)N(C)CC(=O)N(C)[C@@H](C(C)C)C(=O)O[C@H]4C)c3nc-2c(C(=O)N[C@@H]2C(=O)N[C@H](C(C)C)C(=O)N3CCC[C@H]3C(=O)N(C)CC(=O)N(C)[C@@H](C(C)C)C(=O)O[C@H]2C)c(N)c1=O` (I: [aThr][dV]P[Sar][NMeV] / II: [aThr][dV]P[Sar][NMeV]; ester I:1-I:C, II:1-II:C; linker I:N-II:N via Actinocin(9to1))?
**A.** T/C (dose: 0.02 mg/kg/injection, schedule: Q01DX009 (ip), vehicle: water, evaluated on day 5): 220 and 317 % of control; T/C (dose: 0.02 mg/kg/injection, schedule: Q01DX009 (ip), vehicle: water, evaluated on day 92): 220 % of control [7 of 8 alive]; T/C (dose: 0.02 mg/kg/injection, schedule: Q01DX009 (ip), vehicle: water, evaluated on day 93): 317 % of control; T/C (dose: 0.03 mg/kg/injection, schedule: Q01DX009 (ip), vehicle: water, evaluated on day 5): 279 and 754 % of control; T/C (dose: 0.03 mg/kg/injection, schedule: Q01DX009 (ip), vehicle: water, evaluated on day 92): 279 % of control; T/C (dose: 0.03 mg/kg/injection, schedule: Q01DX009 (ip), vehicle: water, evaluated on day 93): 754 % of control; T/C (dose: 0.04 mg/kg/injection, schedule: Q01DX009 (ip), vehicle: water, evaluated on day 5): 83 and 389 % of control; T/C (dose: 0.04 mg/kg/injection, schedule: Q01DX009 (ip), vehicle: water, evaluated on day 92): 389 % of control; survivor count (dose: 0.04 mg/kg/injection, schedule: Q01DX009 (ip), vehicle: water): 8 of 8; T/C (dose: 0.05 mg/kg/injection, schedule: Q01DX009 (ip), vehicle: water, evaluated on day 5): 76 and 483 % of control; T/C (dose: 0.05 mg/kg/injection, schedule: Q01DX009 (ip), vehicle: water, evaluated on day 92): 483 % of control; survivor count (dose: 0.05 mg/kg/injection, schedule: Q01DX009 (ip), vehicle: water): 8 of 8; T/C (dose: 0.06 mg/kg/injection, schedule: Q01DX009 (ip), vehicle: water, evaluated on day 5): 69 and 211 % of control; T/C (dose: 0.06 mg/kg/injection, schedule: Q01DX009 (ip), vehicle: water, evaluated on day 92): 211 % of control; survivor count (dose: 0.06 mg/kg/injection, schedule: Q01DX009 (ip), vehicle: water): 8 of 8; T/C (dose: 0.2 mg/kg/injection, schedule: Q01DX001 (ip), vehicle: water): 143 % of control; T/C (dose: 0.2 mg/kg/injection, schedule: Q04DX003 (ip), vehicle: saline): 140 % of control; T/C (dose: 0.33 mg/kg/injection, schedule: Q01DX001 (ip), vehicle: saline): 172, 180, 182, 187, 188, 194 % of control; T/C (dose: 0.38 mg/kg/injection, schedule: Q01DX001 (ip), vehicle: saline): 167, 177, 199, 214, 218 % of control; T/C (dose: 0.4 mg/kg/injection, schedule: Q01DX001 (ip), vehicle: saline, evaluated on day 5): 228 % of control; T/C (dose: 0.4 mg/kg/injection, schedule: Q01DX001 (ip), vehicle: saline, evaluated on day 60): 210, 218, 228, 235 % of control; T/C (dose: 0.5 mg/kg/injection, schedule: Q01DX001 (ip), vehicle: saline, evaluated on day 40): 169 % of control [9 of 10 alive]; T/C (dose: 0.5 mg/kg/injection, schedule: Q01DX001 (ip), vehicle: saline, evaluated on day 60): 190, 198, 203, 214, 229, 237 % of control; T/C (dose: 0.57 mg/kg/injection, schedule: Q01DX001 (ip), vehicle: saline): 175, 206, 216, 219, 223 % of control; T/C (dose: 0.75 mg/kg/injection, schedule: Q01DX001 (ip), vehicle: saline): 189 [9 of 10 alive], 190, 193, 199, 213, 262 % of control; T/C (dose: 0.8 mg/kg/injection, schedule: Q01DX001 (ip), vehicle: saline, evaluated on day 5): 250 % of control [8 of 9 alive]; T/C (dose: 0.8 mg/kg/injection, schedule: Q01DX001 (ip), vehicle: saline, evaluated on day 40): 125 % of control [9 of 10 alive]; survivor count (dose: 0.8 mg/kg/injection, schedule: Q01DX001 (ip), vehicle: saline): 3 of 8 and 8 of 10; T/C (dose: 0.8 mg/kg/injection, schedule: Q01DX001 (ip), vehicle: water): 129 % of control [9 of 10 alive]; T/C [1]: 130 [9 of 10 alive], 211, 242, 282 % of control; survivor count [1]: 9 of 10; survivor count (dose: 1.0 mg/kg/injection, schedule: Q01DX001 (ip), vehicle: saline): 4 of 10; survivor count (dose: 1.6 mg/kg/injection, schedule: Q01DX001 (ip), vehicle: saline): 0 of 8; survivor count (dose: 1.6 mg/kg/injection, schedule: Q01DX001 (ip), vehicle: water): 1 of 10; T/C (dose: 6.2 micrograms/kg/injection, schedule: Q01DX009 (ip), vehicle: water): 144 % of control; T/C (dose: 6.3 micrograms/kg/injection, schedule: Q04DX003 (ip), vehicle: saline): 127 % of control; T/C (dose: 12.5 micrograms/kg/injection, schedule: Q01DX001 (ip), vehicle: saline): 136 % of control; T/C (dose: 25.0 micrograms/kg/injection, schedule: Q01DX001 (ip), vehicle: saline): 145 % of control; T/C (dose: 38.9 micrograms/kg/injection, schedule: Q04DX003 (ip), vehicle: saline + alcohol): 134 % of control; T/C (dose: 64.8 micrograms/kg/injection, schedule: Q04DX003 (ip), vehicle: saline + alcohol): 141 % of control [7 of 8 alive]; T/C (dose: 75.0 micrograms/kg/injection, schedule: Q04DX003 (ip), vehicle: saline + alcohol): 139 % of control; T/C (dose: 100.0 micrograms/kg/injection, schedule: Q01DX009 (ip), vehicle: saline + alcohol, evaluated on day 45): 339 % of control; T/C (dose: 100.0 micrograms/kg/injection, schedule: Q01DX009 (ip), vehicle: saline + alcohol, evaluated on day 60): 104, 115, 312 % of control; survivor count (dose: 100.0 micrograms/kg/injection, schedule: Q01DX009 (ip), vehicle: saline + alcohol): 8 of 8; survivor count (dose: 100.0 micrograms/kg/injection, schedule: Q01DX009 (ip), vehicle: saline): 10 of 10; survivor count (dose: 100.0 micrograms/kg/injection, schedule: Q01DX009 (ip), vehicle: water): 6 of 6; survivor count (dose: 100.0 micrograms/kg/injection, schedule: Q01DX010 (ip), vehicle: other): 6 of 6; T/C (dose: 108.0 micrograms/kg/injection, schedule: Q04DX003 (ip), vehicle: saline + alcohol, evaluated on day 45): 161 and 239 % of control; T/C (dose: 108.0 micrograms/kg/injection, schedule: Q04DX003 (ip), vehicle: saline + alcohol, evaluated on day 48): 162 and 210 % of control; T/C (dose: 108.0 micrograms/kg/injection, schedule: Q04DX003 (ip), vehicle: saline + alcohol, evaluated on day 60): 150, 189, 207, 216, 247, 262 % of control; T/C (dose: 112.5 micrograms/kg/injection, schedule: Q04DX003 (ip), vehicle: saline + alcohol): 146 % of control; survivor count (dose: 150.0 micrograms/kg/injection, schedule: Q01DX009 (ip), vehicle: saline): 9 of 10; T/C (dose: 150.0 micrograms/kg/injection, schedule: Q04DX003 (ip), vehicle: saline + alcohol): 162, 208, 212, 232, 281 % of control; T/C (dose: 180.0 micrograms/kg/injection, schedule: Q04DX003 (ip), vehicle: saline + alcohol, evaluated on day 45): 194 and 276 % of control [7 of 8 alive]; T/C (dose: 180.0 micrograms/kg/injection, schedule: Q04DX003 (ip), vehicle: saline + alcohol, evaluated on day 48): 201 and 210 % of control; T/C (dose: 180.0 micrograms/kg/injection, schedule: Q04DX003 (ip), vehicle: saline + alcohol, evaluated on day 60): 205, 209 (2×), 245, 260, 320 % of control; survivor count (dose: 200.0 micrograms/kg/injection, schedule: Q01DX009 (ip), vehicle: water): 5 of 6; T/C (dose: 300.0 micrograms/kg/injection, schedule: Q04DX003 (ip), vehicle: saline + alcohol, evaluated on day 45): 127 and 232 % of control; T/C (dose: 300.0 micrograms/kg/injection, schedule: Q04DX003 (ip), vehicle: saline + alcohol, evaluated on day 48): 210 and 400 % of control; T/C (dose: 300.0 micrograms/kg/injection, schedule: Q04DX003 (ip), vehicle: saline + alcohol, evaluated on day 60): 115, 159, 187, 208, 233, 240, 243, 245, 252, 265, 295 % of control; survivor count (dose: 400.0 micrograms/kg/injection, schedule: Q01DX009 (ip), vehicle: water): 1 of 6; survivor count (dose: 400.0 micrograms/kg/injection, schedule: Q01DX010 (ip), vehicle: saline): 6 of 6; T/C (dose: 500.0 micrograms/kg/injection, schedule: Q04DX003 (ip), vehicle: saline + alcohol, evaluated on day 45): 118 % of control; T/C (dose: 500.0 micrograms/kg/injection, schedule: Q04DX003 (ip), vehicle: saline + alcohol, evaluated on day 48): 124 % of control; T/C (dose: 500.0 micrograms/kg/injection, schedule: Q04DX003 (ip), vehicle: saline + alcohol, evaluated on day 60): 92, 93, 97, 106 [7 of 8 alive], 126, 254 % of control [7 of 8 alive]; survivor count (dose: 500.0 micrograms/kg/injection, schedule: Q04DX003 (ip), vehicle: saline + alcohol): 8 of 8 (2×); survivor count (dose: 600.0 micrograms/kg/injection, schedule: Q04DX003 (ip), vehicle: saline + alcohol): 7 of 8; survivor count (dose: 600.0 micrograms/kg/injection, schedule: Q04DX003 (ip), vehicle: saline): 6 of 8 and 8 of 8

Reference: PubChem BioAssay AID328 (DTP/NCI, 2004)
